# Some of the results follow.
# B1: SfaEH (Escherichia coli), Q1RDG5 (protein)
# chain: LLCRNNQTGQVFNSGDTSFRVNVSPVVQYDKSISVLDLSQLVSCQNEDSTGQNYDYLKILKGSGFSPALDTKTYGRLDFTSRPTGYARQLPLQFDLQVTEAFYQYGVWKPFPAKLYLYPAPGVFGKVINNGDLLATLYVNKFSTKGQEAGERNFTWRFYATNDVYIQTGTCRVSSNNVKVDLPSYPGGPVTVPLTVRCDQTQSVSYTLSGPVTGSGNTVFANTAASGSGGVGIQLSDNVGPVPAGQPRSLGQVGSSPVSLGLKASYALTGQASPTPGAVQSVINVTFSYN
# Columns and labels:
# Experiment in all cases: glycan array binding signal (z-score within array); higher = stronger binding
# Details in all cases: glycan notation: IUPAC condensed, linker removed
# [1] = molecular target: Fuc(a1-2)[GalNAc(a1-3)]Gal(b1-3)GlcNAc(b1-6)GalNAc
# Procedure, shortened: (§1)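 The Consortium for Functional Glycomics database supplied 3228 glycan arrays, of which those lacking an available protein sequence were dropped. The binding signal, a within-array Z-score, was averaged across arrays of the same protein sequence and across linkers. Negative scores can be read as non-binding.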
# [2] = molecular target: Fuc(a1-2)[GalNAc(a1-3)]Gal(b1-4)Glc
# Procedure, shortened: as §1
# [3] = molecular target: Fuc(a1-2)[GalNAc(a1-3)]Gal(b1-4)GlcNAc
# Procedure, shortened: as §1
# [4] = molecular target: Fuc(a1-2)[GalNAc(a1-3)]Gal(b1-4)GlcNAc(b1-2)Man
# Procedure, shortened: as §1
# [5] = molecular target: Fuc(a1-2)[GalNAc(a1-3)]Gal(b1-4)GlcNAc(b1-2)Man(a1-3)[Fuc(a1-2)[GalNAc(a1-3)]Gal(b1-4)GlcNAc(b1-2)Man(a1-6)]Man(b1-4)GlcNAc(b1-4)GlcNAc
# Procedure, shortened: as §1
# [6] = molecular target: Fuc(a1-2)[GalNAc(a1-3)]Gal(b1-4)GlcNAc(b1-2)Man(a1-3)[Fuc(a1-2)[GalNAc(a1-3)]Gal(b1-4)GlcNAc(b1-2)Man(a1-6)]Man(b1-4)GlcNAc(b1-4)[Fuc(a1-6)]GlcNAc
# Procedure, shortened: as §1
# [7] = molecular target: Fuc(a1-2)[GalNAc(a1-3)]Gal(b1-4)GlcNAc(b1-3)Gal(b1-4)GlcNAc
# Procedure, shortened: as §1
# [8] = molecular target: Fuc(a1-2)[GalNAc(a1-3)]Gal(b1-4)GlcNAc(b1-3)Gal(b1-4)GlcNAc(b1-3)Gal(b1-4)GlcNAc
# Procedure, shortened: as §1
# [9] = molecular target: Fuc(a1-2)[GalNAc(a1-3)]Gal(b1-4)GlcNAc(b1-3)GalNAc
# Procedure, shortened: as §1
# [10] = molecular target: Fuc(a1-2)[GalNAc(a1-3)]Gal(b1-4)GlcNAc(b1-3)[Fuc(a1-2)[GalNAc(a1-3)]Gal(b1-4)GlcNAc(b1-6)]GalNAc
# Procedure, shortened: as §1
# [11] = molecular target: Fuc(a1-2)[GalNAc(a1-3)]Gal(b1-4)GlcNAc(b1-6)GalNAc
# Procedure, shortened: as §1
# [12] = molecular target: Fuc(a1-2)[GalNAc(a1-3)]Gal(b1-4)[Fuc(a1-3)]GlcNAc
# Procedure, shortened: as §1
# [13] = molecular target: Fuc(a1-2)[GalNAc(a1-3)]Gal(b1-4)[Fuc(a1-3)]GlcNAc(b1-3)GalNAc
# Procedure, shortened: as §1
# [14] = molecular target: Fuc(a1-2)[GalNAc(a1-4)]Gal(b1-4)GlcNAc
# Procedure, shortened: as §1
# [15] = molecular target: Fuc(a1-2)[GalNAc(b1-3)]Gal
# Procedure, shortened: as §1
# Fuc(a1-3)GlcNAc = molecular target: Fuc(a1-3)GlcNAc
# Procedure, shortened: as §1
# [16] = molecular target: Fuc(a1-3)[Gal(b1-4)]Glc6S
# Procedure, shortened: as §1
# [17] = molecular target: Fuc(a1-3)[Gal(b1-4)]GlcNAc
# Procedure, shortened: as §1
# [18] = molecular target: Fuc(a1-3)[Gal(b1-4)]GlcNAc(b1-2)Man
# Procedure, shortened: as §1
# [19] = molecular target: Fuc(a1-3)[Gal(b1-4)]GlcNAc(b1-2)Man(a1-3)[Fuc(a1-3)[Gal(b1-4)]GlcNAc(b1-2)Man(a1-6)]Man(b1-4)GlcNAc(b1-4)GlcNAc
# Procedure, shortened: as §1
# [20] = molecular target: Fuc(a1-3)[Gal(b1-4)]GlcNAc(b1-2)Man(a1-3)[Fuc(a1-3)[Gal(b1-4)]GlcNAc(b1-2)Man(a1-6)]Man(b1-4)GlcNAc(b1-4)[Fuc(a1-6)]GlcNAc
# Procedure, shortened: as §1
# [21] = molecular target: Fuc(a1-3)[Gal(b1-4)]GlcNAc(b1-3)Gal(b1-3)[Fuc(a1-4)]GlcNAc
# Procedure, shortened: as §1
# [22] = molecular target: Fuc(a1-3)[Gal(b1-4)]GlcNAc(b1-3)GalNAc
# Procedure, shortened: as §1
# [23] = molecular target: Fuc(a1-3)[Gal(b1-4)]GlcNAc(b1-4)Gal(b1-4)[Fuc(a1-3)]GlcNAc
# Procedure, shortened: as §1
# [24] = molecular target: Fuc(a1-3)[Gal(b1-4)]GlcNAc(b1-4)Gal(b1-4)[Fuc(a1-3)]GlcNAc(b1-4)Gal(b1-4)[Fuc(a1-3)]GlcNAc
# Procedure, shortened: as §1
# [25] = molecular target: Fuc(a1-3)[Gal(b1-4)]GlcNAc(b1-6)GalNAc
# Procedure, shortened: as §1
# [26] = molecular target: Fuc(a1-3)[Gal(b1-4)]GlcNAc(b1-6)[Gal(b1-3)GlcNAc(b1-3)]Gal(b1-4)Glc
# Procedure, shortened: as §1
# [27] = molecular target: Fuc(a1-3)[Gal(b1-4)]GlcNAc6S
# Procedure, shortened: as §1
# [28] = molecular target: Fuc(a1-3)[Gal3S(b1-4)]Glc
# Procedure, shortened: as §1
# [29] = molecular target: Fuc(a1-3)[Gal3S(b1-4)]GlcNAc
# Procedure, shortened: as §1
# [30] = molecular target: Fuc(a1-3)[Gal3S(b1-4)]GlcNAc6S
# Procedure, shortened: as §1
# [31] = molecular target: Fuc(a1-3)[GalNAc(b1-4)]GlcNAc
# Procedure, shortened: as §1
# [32] = molecular target: Fuc(a1-3)[GalNAc(b1-4)]GlcNAc6S
# Procedure, shortened: as §1
# Fuc(a1-4)GlcNAc = molecular target: Fuc(a1-4)GlcNAc
# Procedure, shortened: as §1
# Fuc(b1-3)GlcNAc = molecular target: Fuc(b1-3)GlcNAc
# Procedure, shortened: as §1
# Gal(a1-2)Gal = molecular target: Gal(a1-2)Gal
# Procedure, shortened: as §1
# Gal(a1-3)Gal = molecular target: Gal(a1-3)Gal
# Procedure, shortened: as §1
# Gal(a1-3)Gal(b1-3)GlcNAc = molecular target: Gal(a1-3)Gal(b1-3)GlcNAc
# Procedure, shortened: as §1
# [33] = molecular target: Gal(a1-3)Gal(b1-3)GlcNAc(b1-2)Man
# Procedure, shortened: as §1
# [34] = molecular target: Gal(a1-3)Gal(b1-3)GlcNAc(b1-2)Man(a1-3)[Gal(a1-3)Gal(b1-3)GlcNAc(b1-2)Man(a1-6)]Man(b1-4)GlcNAc(b1-4)GlcNAc
# Procedure, shortened: as §1
# [35] = molecular target: Gal(a1-3)Gal(b1-3)GlcNAc(b1-3)GalNAc
# Procedure, shortened: as §1
# [36] = molecular target: Gal(a1-3)Gal(b1-3)GlcNAc(b1-6)GalNAc
# Procedure, shortened: as §1
# [37] = molecular target: Gal(a1-3)Gal(b1-3)[Fuc(a1-4)]GlcNAc(b1-2)Man(a1-3)[Gal(a1-3)Gal(b1-3)[Fuc(a1-4)]GlcNAc(b1-2)Man(a1-6)]Man(b1-4)GlcNAc(b1-4)GlcNAc
# Procedure, shortened: as §1
# Gal(a1-3)Gal(b1-4)Glc = molecular target: Gal(a1-3)Gal(b1-4)Glc
# Procedure, shortened: as §1
# Gal(a1-3)Gal(b1-4)GlcNAc = molecular target: Gal(a1-3)Gal(b1-4)GlcNAc
# Procedure, shortened: as §1
binder,measurement,setting,value
B1,glycan array binding signal (z-score),[1],-0.775
same,glycan array binding signal (z-score),[2],-0.194
same,glycan array binding signal (z-score),[3],-0.739
same,glycan array binding signal (z-score),[4],0.567
same,glycan array binding signal (z-score),[5],0.141
same,glycan array binding signal (z-score),[6],-0.857
same,glycan array binding signal (z-score),[7],-0.712
same,glycan array binding signal (z-score),[8],-0.209
same,glycan array binding signal (z-score),[9],-0.41
same,glycan array binding signal (z-score),[10],-0.158
same,glycan array binding signal (z-score),[11],-0.837
same,glycan array binding signal (z-score),[12],-0.13
same,glycan array binding signal (z-score),[13],0.359
same,glycan array binding signal (z-score),[14],0.235
same,glycan array binding signal (z-score),[15],0.138
same,glycan array binding signal (z-score),Fuc(a1-3)GlcNAc,-0.598
same,glycan array binding signal (z-score),[16],-0.568
same,glycan array binding signal (z-score),[17],-0.018
same,glycan array binding signal (z-score),[18],-0.256
same,glycan array binding signal (z-score),[19],-0.321
same,glycan array binding signal (z-score),[20],-0.049
same,glycan array binding signal (z-score),[21],-0.789
same,glycan array binding signal (z-score),[22],-0.626
same,glycan array binding signal (z-score),[23],-0.544
same,glycan array binding signal (z-score),[24],0.511
same,glycan array binding signal (z-score),[25],-0.1
same,glycan array binding signal (z-score),[26],1.44
same,glycan array binding signal (z-score),[27],0.627
same,glycan array binding signal (z-score),[28],-0.496
same,glycan array binding signal (z-score),[29],-0.127
same,glycan array binding signal (z-score),[30],-0.93
same,glycan array binding signal (z-score),[31],0.432
same,glycan array binding signal (z-score),[32],0.125
same,glycan array binding signal (z-score),Fuc(a1-4)GlcNAc,0.482
same,glycan array binding signal (z-score),Fuc(b1-3)GlcNAc,-0.431
same,glycan array binding signal (z-score),Gal(a1-2)Gal,-0.174
same,glycan array binding signal (z-score),Gal(a1-3)Gal,-0.589
same,glycan array binding signal (z-score),Gal(a1-3)Gal(b1-3)GlcNAc,-0.117
same,glycan array binding signal (z-score),[33],0.037
same,glycan array binding signal (z-score),[34],0.667
same,glycan array binding signal (z-score),[35],-0.852
same,glycan array binding signal (z-score),[36],-0.644
same,glycan array binding signal (z-score),[37],0.025
same,glycan array binding signal (z-score),Gal(a1-3)Gal(b1-4)Glc,0.42
same,glycan array binding signal (z-score),Gal(a1-3)Gal(b1-4)GlcNAc,-0.284

# In another format: entries from further up.
binder | measurement | setting | value
B1 | glycan array binding signal (z-score) | [10] | -0.158
same | glycan array binding signal (z-score) | [11] | -0.837
